Measurements reported in PubChem BioAssay AID504793 (Drosophila RNAi Screening Center, 2011).

Assay: 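Whole-genome screen for parts of the DNA damage checkpoint at G2/M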 (primary screen)
Cells: Drosophila S2R+ cells
Reagents: long dsRNA against Drosophila genes, about 0.25 µg dsRNA per well
Timing: 4 days of dsRNA, then 4 hours of drug before read-out
Treatment: doxorubicin 0.5 µM for 4 hours to cause double-strand breaks, in cells also given a low, harmless dose of dsRNA against nbs to sensitise the assay
Measurement: 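Per-well count of mitotic cells stained for phospho-histone H3 after doxorubicin exposure, used as mitotic index; counts are raw and not normalised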
Scale: mitotic cells: higher = more cells in mitosis, weaker G2 arrest
Call rule: 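a call needs confirmation in secondary tests, with other dsRNAs and a check of mitotic timing without damage, not just a high primary count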
Calls: active = confirmed in follow-up tests; inactive = not confirmed
The screen tested about 23,000 reagents; below is an unselected part of those that have a named target and a result. Of all reagents, 62 (0.27%) were called active. 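Calls come from follow-up tests whose scores are not deposited, so confirmed genes may have low counts here; counts are not normalised per plate.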 Raw values are not corrected between plates. The numbers tell different reagents against one gene apart. A plus sign joins genes that one reagent is predicted to hit.

| gene knocked down | reagent | mitotic cells, replicate 1 | mitotic cells, replicate 2 | call |
| --- | --- | --- | --- | --- |
| CG13713 | 1 | 8 | – | inactive |
| NaPi-III (Na[+]-dependent inorganic phosphate cotransporter type III) | 1 | 5 | – | inactive |
| NaPi-III (Na[+]-dependent inorganic phosphate cotransporter type III) | 2 | 23 | – | inactive |
| NaPi-III (Na[+]-dependent inorganic phosphate cotransporter type III) | 3 | 12 | – | inactive |
| NaPi-III (Na[+]-dependent inorganic phosphate cotransporter type III) | 4 | 1 | – | inactive |
| MsR1 (Myosuppressin receptor 1) | 1 | 4 | – | inactive |
| MsR1 (Myosuppressin receptor 1) | 2 | 7 | – | inactive |
| Pka-R2 (Protein kinase, cAMP-dependent, regulatory subunit type 2) | 1 | 12 | – | inactive |
| Pka-R2 (Protein kinase, cAMP-dependent, regulatory subunit type 2) | 2 | 2 | – | inactive |
| CG2816 | 1 | 3 | – | inactive |
| CG2816 | 2 | 2 | – | inactive |
| CG30471 | 1 | 5 | – | inactive |
| CG2076 | 1 | 9 | – | inactive |
| CG2076 | 2 | 5 | – | inactive |
| CG30273 | 1 | 9 | – | inactive |
| CG30273 | 2 | 7 | – | inactive |
| TwdlR (TweedleR) | 1 | 13 | – | inactive |
| Rh7 (Rhodopsin 7) | 1 | 5 | – | inactive |
| Rh7 (Rhodopsin 7) | 2 | 5 | – | inactive |
| CG13082 | 1 | 3 | – | inactive |
| CG13082 | 2 | 7 | – | inactive |
| UQCR-6.4 (Ubiquinol-cytochrome c reductase 6.4 kDa subunit) | 1 | 8 | – | inactive |
| UQCR-6.4 (Ubiquinol-cytochrome c reductase 6.4 kDa subunit) | 2 | 2 | – | inactive |
| CG8675 | 1 | 3 | – | inactive |
| CG8675 | 2 | 13 | – | inactive |
| CG4332 | 1 | 16 | – | inactive |
| sotv + CG10731 | 1 | 3 | – | inactive |
| sotv + CG10731 | 2 | 12 | – | inactive |
| Acp36DE (Accessory gland protein 36DE) | 1 | 4 | – | inactive |
| l(2)k10201 (lethal (2) k10201) | 1 | 7 | – | inactive |
| l(2)k10201 (lethal (2) k10201) | 2 | 4 | – | inactive |
| Nadsyn (NAD synthetase) | 1 | 22 | – | inactive |
| CG6959 | 1 | 10 | – | inactive |
| Ip6k (Inositol hexakisphosphate kinase) | 1 | 3 | – | inactive |
| Ip6k (Inositol hexakisphosphate kinase) | 2 | 10 | – | inactive |
| Arl4 (ADP ribosylation factor-like 4) | 1 | 9 | – | inactive |
| vari (varicose) | 1 | 2 | – | inactive |
| pk (prickle) | 1 | 2 | – | inactive |
| pk (prickle) | 2 | 4 | – | inactive |
| pk (prickle) | 3 | 3 | – | inactive |
| CG17028 | 1 | 5 | – | inactive |
| CG17028 | 2 | 6 | – | inactive |
| CG17294 | 1 | 10 | – | inactive |
| Taf3 (TBP-associated factor 3) | 1 | 25 | – | inactive |
| Taf3 (TBP-associated factor 3) | 2 | 5 | – | inactive |
| CG13071 | 1 | – | – | inactive |
| Cpr50Ca (Cuticular protein 50Ca) | 1 | 15 | – | inactive |
| Cpr50Ca (Cuticular protein 50Ca) | 2 | 4 | – | inactive |
| Cpr50Ca (Cuticular protein 50Ca) | 3 | 4 | – | inactive |
| COX7AL (Cytochrome c oxidase subunit 7A-like) | 1 | 2 | – | inactive |
| COX7AL (Cytochrome c oxidase subunit 7A-like) | 2 | 7 | – | inactive |
| Cbs (Cystathionine beta-synthase) | 1 | 4 | – | inactive |
| Boh2 (Buddy of Hmr 2) | 1 | 2 | – | inactive |
| CG4781 | 1 | 8 | – | inactive |
| sl (small wing) | 1 | 10 | – | inactive |
| sl (small wing) | 2 | 12 | – | inactive |
| CG42327 | 1 | – | – | inactive |
| CG42327 | 2 | 5 | – | inactive |
| CG42327 | 3 | 4 | – | inactive |
| CG42327 | 4 | 1 | – | inactive |
| CG42327 | 5 | 6 | – | inactive |
| CG8952 | 1 | 3 | – | inactive |
| CG34370 | 1 | 9 | – | inactive |
| CG34370 | 2 | 6 | – | inactive |
| CG34370 | 3 | 4 | – | inactive |
| CG34370 | 4 | – | – | inactive |
| CG34370 | 5 | 10 | – | inactive |
| Pex23 (Peroxin 23) | 1 | 1 | – | inactive |
| Pex23 (Peroxin 23) | 2 | 1 | – | inactive |
| Pex23 (Peroxin 23) | 3 | 4 | – | inactive |
| Pmm2 (Phosphomannomutase type 2) | 1 | 5 | – | inactive |
| Pmm2 (Phosphomannomutase type 2) | 2 | 5 | – | inactive |
| Atg3 (Autophagy-related 3) | 1 | 9 | – | inactive |
| Atg3 (Autophagy-related 3) | 2 | 4 | – | inactive |
| Atg3 (Autophagy-related 3) | 3 | 3 | – | inactive |
| mub (mushroom-body expressed) | 1 | 6 | – | inactive |
| mub (mushroom-body expressed) | 2 | 43 | – | inactive |
| CG31100 | 1 | 2 | – | inactive |
| CG31100 | 2 | 4 | – | inactive |
| RpL30 (Ribosomal protein L30) | 1 | 5 | – | inactive |
| CG5334 | 1 | 16 | – | inactive |
| CG9485 | 1 | 7 | – | inactive |
| hbt (headbutt) | 1 | 2 | – | inactive |
| CG2126 | 1 | 6 | – | inactive |
| CG9667 | 1 | 5 | – | inactive |
| CG9667 | 2 | 11 | – | inactive |
| CG11050 | 1 | 12 | – | inactive |
| CG11050 | 2 | 5 | – | inactive |
| CG31776 | 1 | 4 | – | inactive |
| casp (caspar) | 1 | 9 | – | inactive |
| Lmx1a (LIM homeobox transcription factor 1 alpha) | 1 | 4 | – | inactive |
| Lmx1a (LIM homeobox transcription factor 1 alpha) | 2 | 6 | – | inactive |
| CG11374 | 1 | 4 | – | inactive |
| CheB42c (Chemosensory protein B 42c) | 1 | 4 | – | inactive |
| CheB42c (Chemosensory protein B 42c) | 2 | 3 | – | inactive |
| CG11251 | 1 | 4 | – | inactive |
| CG10919 | 1 | 5 | – | inactive |
| CG11523 | 1 | 9 | – | inactive |
| CG11523 | 2 | 3 | – | inactive |
| LysD + LysC (retired record) | 1 | 3 | – | inactive |
| LysD + LysC (retired record) | 2 | 16 | – | inactive |
| CG12814 | 1 | 8 | – | inactive |
| CG12814 | 2 | 11 | – | inactive |
| Cngl (Cyclic nucleotide-gated ion channel-like) | 1 | 9 | – | inactive |
| Cngl (Cyclic nucleotide-gated ion channel-like) | 2 | 11 | – | inactive |
| CG31740 | 1 | 4 | – | inactive |
| CG15115 | 1 | 8 | – | inactive |
| l(3)80Fg (lethal (3) 80Fg) | 1 | 16 | – | inactive |
| l(3)80Fg (lethal (3) 80Fg) | 2 | 9 | – | inactive |
| Dhfr (Dihydrofolate reductase) | 1 | 3 | – | inactive |
| Dhfr (Dihydrofolate reductase) | 2 | 5 | – | inactive |
| ogre (optic ganglion reduced) | 1 | 4 | – | inactive |
| ogre (optic ganglion reduced) | 2 | 8 | – | inactive |
| Ir54a + sub | 1 | 9 | – | inactive |
| Os-C | 1 | 11 | – | inactive |
| Os-C | 2 | 5 | – | inactive |
| Eno (Enolase) | 1 | 5 | – | inactive |
| Cpr50Cb (Cuticular protein 50Cb) | 1 | 8 | – | inactive |
| Cpr50Cb (Cuticular protein 50Cb) | 2 | 5 | – | inactive |
| Hr38 (Hormone receptor-like in 38) | 1 | 10 | – | inactive |
| Hr38 (Hormone receptor-like in 38) | 2 | 4 | – | inactive |
| CG15916 | 1 | 12 | – | inactive |
| ey (eyeless) | 1 | 10 | – | inactive |
| ey (eyeless) | 2 | 13 | – | inactive |
| Atet (ABC transporter expressed in trachea) | 1 | 2 | – | inactive |
| CG15879 | 1 | 3 | – | inactive |
| CG15879 | 2 | 9 | – | inactive |
| robl22E | 1 | 5 | – | inactive |
| D19B | 1 | 7 | – | inactive |
| D19B | 2 | 6 | – | inactive |
| CG2121 | 1 | 8 | – | inactive |
| CG2121 | 2 | 6 | – | inactive |
| mil (milkah) | 1 | 24 | – | inactive |
| RfC38 (Replication factor C 38kD subunit) | 1 | 9 | – | inactive |
| Cyp6a17 (Cytochrome P450 6a17) | 1 | 7 | – | inactive |
| CG8476 | 1 | 7 | – | inactive |
| CG8476 | 2 | 8 | – | inactive |
| CG1636 | 1 | 6 | 15 | inactive |
| CG10433 | 1 | 7 | – | inactive |
| CG10433 | 2 | 4 | – | inactive |

In a second layout: entries from further up
gene knocked down	reagent	mitotic cells, replicate 1	mitotic cells, replicate 2	call
CG2076	2	5		inactive
CG30273	1	9		inactive
CG30273	2	7		inactive
TwdlR (TweedleR)	1	13		inactive
Rh7 (Rhodopsin 7)	1	5		inactive
Rh7 (Rhodopsin 7)	2	5		inactive
CG13082	1	3		inactive
CG13082	2	7		inactive
UQCR-6.4 (Ubiquinol-cytochrome c reductase 6.4 kDa subunit)	1	8		inactive
UQCR-6.4 (Ubiquinol-cytochrome c reductase 6.4 kDa subunit)	2	2		inactive
CG8675	1	3		inactive
CG8675	2	13		inactive
CG4332	1	16		inactive
sotv + CG10731	1	3		inactive
